# PubChem BioAssay AID463205 (Broad Institute, 2010)
# In all, about 2,400 compounds went through this assay and about 20 (0.8%) were called active.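 How the source made its calls: active means AC50 no more than ten times the highest tested concentration, or full inhibition at every dose giving a flat fit (cut at about 30 µM in these data); inconclusive means flat fit with activity between 30% and 70%, or poor-quality invalid fit; inactive means AC50 more than ten times the top tested dose.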 This is one part of the list.
# Assay: luciferase-based ADP detection interference – biochemical, luminescence, cell-free, homogeneous, artefact control for GSK-3a inhibitor project, dose response (AID 463205);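 further: kinase-free counter-screen against the ADP-Glo detection reagents only; potency is for inhibitors that reduce the luminescence signal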
# Details: Cell-free ADP-Glo detection reagents, 5 uM ADP
row,Compound,AC50
1,Cc1cnc(NC(=O)C2CC(=O)N(c3ccc4c(c3)OCCO4)C2)s1 (stereo not drawn),inactive: > 30 µM
2,Cc1ccc(-c2nnc3n2N=C(c2ccccc2)CS3)cc1,inactive: > 30 µM
3,Cc1nc2ncnn2c(C)c1Cc1ccccc1Cl,inactive: > 30 µM
4,COc1ccc(OCC(=O)N2CCN(c3nnc(-c4ccc(C)cc4)c4ccccc34)CC2)cc1,inactive: > 30 µM
5,COCc1c(C(=O)N/N=C\c2cccnc2)nnn1-c1nonc1N,inactive: > 30 µM
6,CCOc1cccc(-c2c(C(=O)N/N=C/c3ccncc3)nnn2-c2nonc2N)c1,inactive: > 30 µM
7,CN(C)S(=O)(=O)c1cccc(NC(=S)NN=C(Cc2ccccc2)Cc2ccccc2)c1,inactive: > 30 µM
8,O=C(O)c1cccc2c1C(=O)c1cc(Br)ccc1S2(=O)=O,inactive: > 30 µM
9,COc1ccccc1NC(=O)c1ccc(C(=O)c2ccccc2)o1,inactive: > 30 µM
10,N#Cc1c(Nc2ccccc2)c(C=O)c[nH]c1=O,inactive: > 30 µM
11,COc1ccc(NC(=O)CSc2nc3[nH]ncc3c(=O)n2-c2ccccc2OC)cc1OC,inactive: > 30 µM
12,CCN1C(=O)c2ccc(C(=O)NCc3ccc4c(c3)OCO4)cc2C1=O,inactive: > 30 µM
13,O=C(CSc1nnc(SCc2ccccc2)s1)N/N=C/c1ccc(C(=O)O)cc1,inactive: > 30 µM
14,CCOc1ccc(C2C3=C(CCCC3=O)Nc3ccc4ncccc4c32)cc1 (stereo not drawn),inactive: > 30 µM
15,CCOc1ccc(Cn2nnc(C(=O)Nc3ccc(OC)cc3OC)c2N)cc1,inactive: > 30 µM
16,CCOC(=O)c1[nH]cnc1C(=O)Nc1ccncc1,inactive: > 30 µM
17,CC1(C)CC(NC(=O)COc2ccccc2Cl)CC(C)(C)N1,inactive: > 30 µM
18,Cn1c(=O)c2c(-c3ccccc3)n3c4ccccc4ncc3c2n(C)c1=O,inactive: > 30 µM
19,CC1(c2ccccc2)CC(C)(C)N2C(=O)/C(=C3\SC(=S)NC3=O)c3cccc1c32 (stereo not drawn),inactive: > 30 µM
20,NC(=O)c1cc([N+](=O)[O-])ccc1NCc1ccc(N)cc1,inactive: > 30 µM
21,CN(Cc1c(C(=O)N/N=C/c2cccc(O)c2)nnn1-c1nonc1N)c1ccccc1,inactive: > 30 µM
22,Cc1cc(OC(=O)c2c(C)cc(O)cc2O)cc(O)c1C(=O)O,inactive: > 30 µM
23,C/C(=N\NC(=O)c1nnn(-c2nonc2N)c1-c1cccs1)c1cccnc1,inactive: > 30 µM
24,Cc1cnn(C(=O)c2ccccc2Br)c1,inactive: > 30 µM

# No new results follow: entries from further up.
row,Compound,AC50
5,COCc1c(C(=O)N/N=C\c2cccnc2)nnn1-c1nonc1N,inactive: > 30 µM
6,CCOc1cccc(-c2c(C(=O)N/N=C/c3ccncc3)nnn2-c2nonc2N)c1,inactive: > 30 µM
7,CN(C)S(=O)(=O)c1cccc(NC(=S)NN=C(Cc2ccccc2)Cc2ccccc2)c1,inactive: > 30 µM
8,O=C(O)c1cccc2c1C(=O)c1cc(Br)ccc1S2(=O)=O,inactive: > 30 µM
9,COc1ccccc1NC(=O)c1ccc(C(=O)c2ccccc2)o1,inactive: > 30 µM
10,N#Cc1c(Nc2ccccc2)c(C=O)c[nH]c1=O,inactive: > 30 µM
11,COc1ccc(NC(=O)CSc2nc3[nH]ncc3c(=O)n2-c2ccccc2OC)cc1OC,inactive: > 30 µM

# Shown tab-delimited: part of the list above.
row	Compound	AC50
18	Cn1c(=O)c2c(-c3ccccc3)n3c4ccccc4ncc3c2n(C)c1=O	inactive: > 30 µM
19	CC1(c2ccccc2)CC(C)(C)N2C(=O)/C(=C3\SC(=S)NC3=O)c3cccc1c32 (stereo not drawn)	inactive: > 30 µM

# More structures:

row,Compound,AC50
1,O=C1/C(=C/c2ccco2)Oc2c1ccc(O)c2CN1CCCCC1,inactive: > 30 µM
2,Cc1ccc(C(=O)c2cnc3cc4c(cc3c2S(=O)(=O)c2ccccc2)OCCO4)cc1,inactive: > 30 µM
3,CC(C)CSc1ncnc2c1oc1nc3c(cc12)COC(C)(C)C3,inactive: > 30 µM
4,CC(C)(C)CNc1cc(N2CCCC2)ccc1[N+](=O)[O-],inactive: > 30 µM
5,O=C(Nc1ccccc1C(=O)NC1CCCCC1)c1ccccc1,inactive: > 30 µM
6,O=C(CSc1ncnc2sc3c(c12)CCC3)NCC1CCCO1 (stereo not drawn),inactive: > 30 µM
7,O=C(NCCN1CCc2ccccc2C1)Nc1ccc(F)cc1,inactive: > 30 µM
8,C[n+]1cccc(C2C(C#N)=C(N)Oc3c2ccc2ccccc32)c1 (stereo not drawn),inactive: > 30 µM
9,N#Cc1c(NC(=O)CSc2n[nH]c(N)n2)oc(-c2ccccc2)c1-c1ccccc1,inactive: > 30 µM
10,COC1(OC)N=C(N)C2(C#N)C(c3ccc(C)cc3)C12C#N (stereo not drawn),inactive: > 30 µM
11,COc1ccc(OC)c(C2=Nn3c(nnc3-c3ccncc3)SC2)c1,inactive: > 30 µM
12,O=c1[nH]nc(SCc2ccccc2Cl)n1-c1ccc2c(c1)OCCO2,inactive: > 30 µM
13,O=C(CSc1nc2[nH]ncc2c(=O)n1-c1ccccc1)NCCc1ccccc1,inactive: > 30 µM
14,NC(=O)c1cc([N+](=O)[O-])ccc1NCc1ccc(O)cc1,inactive: > 30 µM
15,Oc1cccc(Nc2nc(NCC3CCCO3)c3ccccc3n2)c1 (stereo not drawn),inactive: > 30 µM
16,Cc1ccc(S(=O)(=O)Nc2ccc(O)c3cccnc23)cc1,inactive: > 30 µM
17,C#CCOCCOCCOCCNc1nc(N2CCN(C(=O)[C@H](CCC(=O)O)n3cc([C@@H](N)CCCCN)nn3)CC2)nc(N2CCN(C(=O)[C@H](CCC(=O)O)n3cc([C@@H](N)CCCCN)nn3)CC2)n1,inactive: > 30 µM
18,NC(=O)c1oc2ccccc2c1NC(=O)c1ccc(F)cc1,inactive: > 30 µM
19,CCCC1=C(C(=O)OCC)C(c2ccc(N(C)C)cc2)n2ncnc2N1 (stereo not drawn),inactive: > 30 µM
20,O=C(CCn1[nH]c(=O)c2ccccc2c1=O)N1CCOCC1,inactive: > 30 µM
21,CCC(=O)/C=C1\Sc2ccc(OC)cc2N1CCO,inactive: > 30 µM
22,Cc1ccc(N=C2NC(=O)/C(=C\c3ccc(C)s3)S2)cc1,inactive: > 30 µM
23,O=C(Nc1ccsc1C(=O)O)c1ccc(Cl)cc1,inactive: > 30 µM
24,CCOc1ccccc1C1CC(=O)NC2=C1C(=O)CC(C)(C)C2 (stereo not drawn),inactive: > 30 µM

row,Compound,AC50
1,CCOC(=O)c1cnc2c(C(F)(F)F)cccc2c1N1CCN(C)CC1,inactive: > 30 µM
2,O=S(=O)(O)c1ccc(N=Nc2ccccc2)cc1,inactive: > 30 µM
3,O=S(=O)(c1ccc(Cl)nc1)N1CCN(Cc2ccc3c(c2)OCO3)CC1,inactive: > 30 µM
4,COc1ccccc1NC(=O)CCSc1nnc(-c2ccncc2)o1,inactive: > 30 µM
5,O=[N+]([O-])c1cnccc1NC1CCCCC1,inactive: > 30 µM
6,O=C1c2cnc3ncnn3c2CC2c3ccccc3CCN12 (stereo not drawn),inactive: > 30 µM
7,COc1cc(OC)cc(-c2nnc(SCc3c(F)cccc3Cl)o2)c1,inactive: > 30 µM
8,Nc1nonc1-n1nnc(C(=O)N/N=C\c2cccc(Cl)c2)c1CN1CCOCC1,inactive: > 30 µM
9,COc1ccc(CC(=O)NCCc2cnc[nH]2)cc1,inactive: > 30 µM
10,O=C(CSc1nnc(-c2ccc(O)cc2)o1)Nc1ccccc1,inactive: > 30 µM
11,N#CCSc1nnc(-c2ccc3c(c2)OCO3)o1,inactive: > 30 µM
12,O=C(COc1ccccc1F)NC12CC3CC(CC(C3)C1)C2,inactive: > 30 µM
13,Nc1c(O)ccc2c1C(=O)c1ccccc1C2=O,inactive: > 30 µM
14,O=C(O)CCNc1ccc(NCCC(=O)O)c2c1C(=O)c1ccccc1C2=O,inactive: > 30 µM
15,Clc1cccc(Nc2ncnc3ccc(Br)cc23)c1,inactive: > 30 µM
16,Fc1ccccc1N1CCN(CCCNc2ccc3nncn3n2)CC1,inactive: > 30 µM
17,CCOC(=O)c1cc(-c2ccccc2)n(CCC(=O)NC(C)CC)c1C (stereo not drawn),inactive: > 30 µM
18,COC(=O)c1c(NC(=O)CN2C(=O)NC3(CCc4ccccc4C3)C2=O)sc2c1CCCCC2 (stereo not drawn),inactive: > 30 µM
19,O=C(NCCCN1CCOCC1)c1ccc(Cl)cc1[N+](=O)[O-],inactive: > 30 µM
20,COc1ccc(OCC(=O)Nc2ccc3c(c2)C(=O)NC3=O)cc1,inactive: > 30 µM
21,CCCC1=C(C(=O)OCC)C(c2ccncc2)n2ncnc2N1 (stereo not drawn),inactive: > 30 µM
22,CSc1nc2n(n1)C(c1ccccn1)C1=C(CC(C)(C)CC1=O)N2 (stereo not drawn),inactive: > 30 µM
23,CCOC(=O)N1CC=C2C(C#N)=C(N)C(C#N)(C#N)[C@H](c3cccs3)[C@H]2C1,inactive: > 30 µM
24,Nc1nc(-c2ccccc2)nc(-c2ccccc2O)n1,inactive: > 30 µM

row,Compound,AC50
1,CSCCC1NC(=S)N(Cc2ccccc2)C1=O (stereo not drawn),inactive: > 30 µM
2,c1ccc2[nH]c(Cn3nnc4ccccc43)nc2c1,inactive: > 30 µM
3,COc1ccc(/C=C/c2nc3ccccc3n2C)cc1,active: 14.3 µM
4,O=C(COC(=O)c1cccs1)Nc1ccc(Cl)cn1,inactive: > 30 µM
5,COc1ccccc1N/C=C/c1onc(C)c1[N+](=O)[O-],inactive: > 30 µM
6,O=C(CSc1nnc(-c2ccc(O)cc2)o1)Nc1ccc2c(c1)OCCO2,inactive: > 30 µM
7,c1cncc(CSc2nnc3ccc(-c4cccs4)nn23)c1,inactive: > 30 µM
8,O=C1NC(=S)N/C1=C\c1ccc(N2CCOCC2)cc1,inactive: > 30 µM
9,COc1ccc(-c2nc(NC(=O)C3CC(=O)N(c4ccc5c(c4)OCCO5)C3)sc2C)cc1 (stereo not drawn),inactive: > 30 µM
10,O=C(Nc1n[nH]c(=S)s1)c1ccc2ccccc2c1,inactive: > 30 µM
11,CC(=O)c1cc(-c2ccc(F)cc2)n(CCC(=O)Nc2cccc(C)n2)c1C,inactive: > 30 µM
12,O=C(CSc1ccc2nnc(-c3ccc(F)cc3)n2n1)N1CCCc2ccccc21,inactive: > 30 µM
13,Cc1ccnc(SCC(=O)Nc2sc3c(c2C#N)CCCC3)n1,inactive: > 30 µM
14,COc1ccc(CC(=O)Nc2nccs2)cc1S(=O)(=O)N1CCOCC1,inactive: > 30 µM
15,N#C/C(=N\Nc1ccccc1Cl)C(=O)c1ccccc1,inactive: > 30 µM
16,COc1cccc(C2C3(C#N)C(N)=NC(OC)(OC)C23C#N)c1 (stereo not drawn),inactive: > 30 µM
17,CC(=C/c1ccco1)/C=N/NC(=O)c1nnn(-c2nonc2N)c1CN(C)C,inactive: > 30 µM
18,O=C(CSc1ncccc1-c1nc2ccccc2[nH]1)NCc1ccco1,inactive: > 30 µM
19,CCOC(=O)c1ccc(NC(=O)CSCc2ccco2)cc1,inactive: > 30 µM
20,CC(/C=N/NC(=O)c1nnn(-c2nonc2N)c1C(C)C)=C\c1ccco1,inactive: > 30 µM
21,CN(C)c1ccc(/C=N/NC(=O)c2ccc(Cl)cc2)cc1,inactive: > 30 µM
